According to patent US5252707A, “Inositol derivative and method for preparing same” (Mitsui Toatsu Chemicals Incorporated, priority 1989, dated 1993):
Counter-ions that a name gives are not always drawn. For at least one compound, name, drawing or mass did not settle the structure.

Legend:
[1] = target: T1, IP3 -5-phosphatase (Homo sapiens, UniProt Q14642); test: Interaction with IP3 -5-phosphatase, human red cell ghosts; format: biochemical; conditions: 0.1 mM compound, incubation at 37° C. for 60 minutes
T1 construct: The red cell ghosts were collected from a human blood; from tissue; host or cells: human red cell ghosts (blood)
T1 sequence (Q14642 1-412): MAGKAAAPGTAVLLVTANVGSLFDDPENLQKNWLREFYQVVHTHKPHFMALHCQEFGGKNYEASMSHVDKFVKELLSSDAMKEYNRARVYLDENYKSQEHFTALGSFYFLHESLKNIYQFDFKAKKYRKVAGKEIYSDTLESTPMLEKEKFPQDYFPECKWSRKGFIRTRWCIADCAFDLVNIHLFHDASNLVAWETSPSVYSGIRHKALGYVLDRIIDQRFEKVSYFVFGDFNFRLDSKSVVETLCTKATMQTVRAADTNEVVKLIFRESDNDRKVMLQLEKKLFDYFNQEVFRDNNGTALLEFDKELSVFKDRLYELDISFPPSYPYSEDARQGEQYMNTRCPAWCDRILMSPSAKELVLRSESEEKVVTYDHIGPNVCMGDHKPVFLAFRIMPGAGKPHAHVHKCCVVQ
Procedure: (§1) Activities of IP3 -5-phosphatase of human red cell ghosts and a cytosol extracted from a rat brain were measured. The red cell ghosts were collected from a human blood in accordance with a Downes et al.'s method [Downes, C. P. et al.; Biochem. J., 203, 169-177 (1982)], and an enzyme activity was measured by two methods. One of the two methods is described in the above-mentioned Downes et al.'s literature, and in this method, the measurement was made on the basis of a radiation chemistry. Another method comprises incubating 0.1 mM of an IP3 compound and red cell ghosts (not more than 0.5 mg) or a cytosol (22 μg) extracted from a rat brain, and then measuring free inorganic phosphorus in accordance with a Youngburg et al.'s method [Youngburg, G. E. and Youngburg, M. V.; J. Lab. Clin. Med., 16, 158-168 (1930)].
(§2) [^32 P]IP3 (specific radioactivity to 2000 Ci/mmol) was available from Amersham Co., Ltd. A phosphoinositide fraction made by Sigma Co., Ltd. which was a control was subjected to alkaline fission in accordance with a Grads and Ballou's method [Grads, C. and Ballou, C. E.; J. Biol. Chem., 236, 54-60 (1961)], and then purified with HPLC by the use of an SAX column. The thus purified phosphoinositide fraction was used.

[2] = tested on: IP3 -5-phosphatase; test: Interaction with IP3 -5-phosphatase, cytosol extracted from a rat brain; format: biochemical; conditions: 0.1 mM compound, incubation at 37° C. for 10 minutes, average of three experiments
Procedure: as §1, §2

Nc1ccc(C(=O)O[C@@H]2[C@H](O)[C@@H](OP(=O)(O)O)[C@H](OP(=O)(O)O)[C@@H](O)[C@@H]2OP(=O)(O)O)cc1 (relative stereo) [Compound 6DL, 2-O-(4-aminobenzoyl)-1,4,5-tri-O-phosphonomyoinositoltriammonium salt]
Red Cell Ghosts Hydrolyzed Amount [1]: 3.8 nmol
Cytosol Extracted from Brain Hydrolyzed Amount [2]: 11.8 nmol
